These are yes or no findings as the source states them, for the method shown. Binding seen in cells or lysates may run through a third protein. These calls come from enrichment with a bait or labelling near it, and not all partners need be listed.
Molecular target: human mtSOD1-L126delTT with a FLAG sequence at the C terminus (human) (UniProt P00441)
Assay: affinity purification with mass spectrometry; anti-FLAG M2 IP (5 ug antibody, protein A/G magnetic beads) from the nuclear fraction of DF7 cells (500 ug total protein); control IP with monoclonal mouse IgG (MOPC 21); DIA proteomics; hits: log2 FC >= 2 over control or missing in the control IP

Sequences of proteins named here, by UniProt entry; tags and fusion partners are left off. A change or cut given only in a name is not applied to a line headed by its entry.
UniProt P00441: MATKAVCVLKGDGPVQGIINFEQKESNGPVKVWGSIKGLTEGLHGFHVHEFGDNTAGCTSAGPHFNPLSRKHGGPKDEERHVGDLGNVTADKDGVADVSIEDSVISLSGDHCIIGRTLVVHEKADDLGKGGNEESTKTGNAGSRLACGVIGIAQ
UniProt Q64514: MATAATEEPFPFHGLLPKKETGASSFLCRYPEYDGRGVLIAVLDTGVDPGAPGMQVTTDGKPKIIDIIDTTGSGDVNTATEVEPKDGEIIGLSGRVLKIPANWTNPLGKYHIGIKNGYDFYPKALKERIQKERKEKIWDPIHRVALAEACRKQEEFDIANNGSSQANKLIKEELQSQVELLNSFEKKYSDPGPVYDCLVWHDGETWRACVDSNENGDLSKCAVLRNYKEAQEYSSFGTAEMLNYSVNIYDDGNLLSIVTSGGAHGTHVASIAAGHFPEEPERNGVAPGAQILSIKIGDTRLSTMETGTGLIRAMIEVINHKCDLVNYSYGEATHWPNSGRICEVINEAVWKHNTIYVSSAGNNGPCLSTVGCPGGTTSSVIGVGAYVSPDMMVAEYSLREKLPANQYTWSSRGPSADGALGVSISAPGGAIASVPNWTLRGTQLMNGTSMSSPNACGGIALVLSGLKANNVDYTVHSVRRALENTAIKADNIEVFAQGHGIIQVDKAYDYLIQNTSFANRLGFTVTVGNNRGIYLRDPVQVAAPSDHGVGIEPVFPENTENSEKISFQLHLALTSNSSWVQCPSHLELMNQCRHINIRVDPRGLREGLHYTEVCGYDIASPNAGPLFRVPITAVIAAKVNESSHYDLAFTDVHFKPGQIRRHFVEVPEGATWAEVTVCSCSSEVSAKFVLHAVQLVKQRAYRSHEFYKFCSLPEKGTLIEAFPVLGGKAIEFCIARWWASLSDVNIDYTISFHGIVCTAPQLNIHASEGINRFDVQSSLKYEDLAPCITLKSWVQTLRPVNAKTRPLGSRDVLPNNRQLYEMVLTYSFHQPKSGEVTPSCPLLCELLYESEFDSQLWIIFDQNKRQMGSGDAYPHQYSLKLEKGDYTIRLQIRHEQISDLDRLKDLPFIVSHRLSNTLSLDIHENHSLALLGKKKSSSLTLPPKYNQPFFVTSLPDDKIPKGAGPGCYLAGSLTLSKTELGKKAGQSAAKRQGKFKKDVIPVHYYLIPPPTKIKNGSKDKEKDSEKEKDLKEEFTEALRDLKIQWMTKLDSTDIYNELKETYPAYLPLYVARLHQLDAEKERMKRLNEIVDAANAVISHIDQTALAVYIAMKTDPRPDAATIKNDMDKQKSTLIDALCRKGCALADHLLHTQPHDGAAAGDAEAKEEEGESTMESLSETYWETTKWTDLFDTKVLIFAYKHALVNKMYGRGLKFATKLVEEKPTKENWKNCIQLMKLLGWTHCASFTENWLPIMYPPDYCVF
UniProt Q64511: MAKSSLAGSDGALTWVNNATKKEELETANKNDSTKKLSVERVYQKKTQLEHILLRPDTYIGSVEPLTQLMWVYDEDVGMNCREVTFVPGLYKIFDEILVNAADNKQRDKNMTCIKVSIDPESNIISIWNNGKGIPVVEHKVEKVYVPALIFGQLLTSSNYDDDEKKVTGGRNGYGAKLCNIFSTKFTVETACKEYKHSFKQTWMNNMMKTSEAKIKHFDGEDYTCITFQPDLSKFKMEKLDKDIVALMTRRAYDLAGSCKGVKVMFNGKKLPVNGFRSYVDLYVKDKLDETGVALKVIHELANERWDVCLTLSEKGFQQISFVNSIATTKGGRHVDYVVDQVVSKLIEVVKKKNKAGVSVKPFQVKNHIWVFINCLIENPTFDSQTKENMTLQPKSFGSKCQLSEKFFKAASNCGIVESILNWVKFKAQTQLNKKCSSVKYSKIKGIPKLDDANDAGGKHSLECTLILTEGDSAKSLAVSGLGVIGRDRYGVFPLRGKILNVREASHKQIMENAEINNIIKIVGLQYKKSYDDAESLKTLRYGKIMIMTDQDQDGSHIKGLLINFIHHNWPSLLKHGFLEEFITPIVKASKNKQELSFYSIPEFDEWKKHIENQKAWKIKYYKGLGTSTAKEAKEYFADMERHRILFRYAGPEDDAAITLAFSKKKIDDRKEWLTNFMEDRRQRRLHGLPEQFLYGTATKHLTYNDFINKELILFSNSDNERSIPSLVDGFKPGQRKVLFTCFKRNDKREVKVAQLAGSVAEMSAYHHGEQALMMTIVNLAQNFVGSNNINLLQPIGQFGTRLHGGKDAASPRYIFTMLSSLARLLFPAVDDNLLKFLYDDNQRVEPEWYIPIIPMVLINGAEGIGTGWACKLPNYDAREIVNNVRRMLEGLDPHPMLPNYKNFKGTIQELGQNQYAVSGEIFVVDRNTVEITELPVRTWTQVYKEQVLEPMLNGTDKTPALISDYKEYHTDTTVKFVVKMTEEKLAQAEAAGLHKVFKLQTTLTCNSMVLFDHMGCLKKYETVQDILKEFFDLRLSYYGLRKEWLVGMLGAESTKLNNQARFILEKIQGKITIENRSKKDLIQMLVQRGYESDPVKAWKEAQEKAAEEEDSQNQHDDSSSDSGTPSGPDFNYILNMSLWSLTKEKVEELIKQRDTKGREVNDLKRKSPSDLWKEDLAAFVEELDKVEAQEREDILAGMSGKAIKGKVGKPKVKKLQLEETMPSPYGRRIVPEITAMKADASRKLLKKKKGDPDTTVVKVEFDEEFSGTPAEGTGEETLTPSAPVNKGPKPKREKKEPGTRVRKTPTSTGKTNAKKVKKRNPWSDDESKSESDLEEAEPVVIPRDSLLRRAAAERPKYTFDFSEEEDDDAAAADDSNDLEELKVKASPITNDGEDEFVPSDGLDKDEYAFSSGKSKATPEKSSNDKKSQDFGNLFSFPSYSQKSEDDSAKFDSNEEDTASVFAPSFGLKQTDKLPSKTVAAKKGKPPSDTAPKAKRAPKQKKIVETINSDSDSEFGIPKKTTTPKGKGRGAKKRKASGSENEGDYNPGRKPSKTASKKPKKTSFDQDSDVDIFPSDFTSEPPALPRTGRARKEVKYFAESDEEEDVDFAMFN
UniProt Q8BG05: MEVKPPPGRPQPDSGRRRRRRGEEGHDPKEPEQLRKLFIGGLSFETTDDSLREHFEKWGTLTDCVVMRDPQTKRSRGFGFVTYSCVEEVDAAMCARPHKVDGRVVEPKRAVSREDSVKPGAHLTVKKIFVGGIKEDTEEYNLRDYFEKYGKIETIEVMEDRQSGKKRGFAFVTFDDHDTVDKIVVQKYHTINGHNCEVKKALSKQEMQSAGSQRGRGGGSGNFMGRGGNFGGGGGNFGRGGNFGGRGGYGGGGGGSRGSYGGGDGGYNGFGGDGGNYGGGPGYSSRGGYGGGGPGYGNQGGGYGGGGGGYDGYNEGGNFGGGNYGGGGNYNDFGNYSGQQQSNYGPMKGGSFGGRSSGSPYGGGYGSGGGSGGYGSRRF
UniProt P83741: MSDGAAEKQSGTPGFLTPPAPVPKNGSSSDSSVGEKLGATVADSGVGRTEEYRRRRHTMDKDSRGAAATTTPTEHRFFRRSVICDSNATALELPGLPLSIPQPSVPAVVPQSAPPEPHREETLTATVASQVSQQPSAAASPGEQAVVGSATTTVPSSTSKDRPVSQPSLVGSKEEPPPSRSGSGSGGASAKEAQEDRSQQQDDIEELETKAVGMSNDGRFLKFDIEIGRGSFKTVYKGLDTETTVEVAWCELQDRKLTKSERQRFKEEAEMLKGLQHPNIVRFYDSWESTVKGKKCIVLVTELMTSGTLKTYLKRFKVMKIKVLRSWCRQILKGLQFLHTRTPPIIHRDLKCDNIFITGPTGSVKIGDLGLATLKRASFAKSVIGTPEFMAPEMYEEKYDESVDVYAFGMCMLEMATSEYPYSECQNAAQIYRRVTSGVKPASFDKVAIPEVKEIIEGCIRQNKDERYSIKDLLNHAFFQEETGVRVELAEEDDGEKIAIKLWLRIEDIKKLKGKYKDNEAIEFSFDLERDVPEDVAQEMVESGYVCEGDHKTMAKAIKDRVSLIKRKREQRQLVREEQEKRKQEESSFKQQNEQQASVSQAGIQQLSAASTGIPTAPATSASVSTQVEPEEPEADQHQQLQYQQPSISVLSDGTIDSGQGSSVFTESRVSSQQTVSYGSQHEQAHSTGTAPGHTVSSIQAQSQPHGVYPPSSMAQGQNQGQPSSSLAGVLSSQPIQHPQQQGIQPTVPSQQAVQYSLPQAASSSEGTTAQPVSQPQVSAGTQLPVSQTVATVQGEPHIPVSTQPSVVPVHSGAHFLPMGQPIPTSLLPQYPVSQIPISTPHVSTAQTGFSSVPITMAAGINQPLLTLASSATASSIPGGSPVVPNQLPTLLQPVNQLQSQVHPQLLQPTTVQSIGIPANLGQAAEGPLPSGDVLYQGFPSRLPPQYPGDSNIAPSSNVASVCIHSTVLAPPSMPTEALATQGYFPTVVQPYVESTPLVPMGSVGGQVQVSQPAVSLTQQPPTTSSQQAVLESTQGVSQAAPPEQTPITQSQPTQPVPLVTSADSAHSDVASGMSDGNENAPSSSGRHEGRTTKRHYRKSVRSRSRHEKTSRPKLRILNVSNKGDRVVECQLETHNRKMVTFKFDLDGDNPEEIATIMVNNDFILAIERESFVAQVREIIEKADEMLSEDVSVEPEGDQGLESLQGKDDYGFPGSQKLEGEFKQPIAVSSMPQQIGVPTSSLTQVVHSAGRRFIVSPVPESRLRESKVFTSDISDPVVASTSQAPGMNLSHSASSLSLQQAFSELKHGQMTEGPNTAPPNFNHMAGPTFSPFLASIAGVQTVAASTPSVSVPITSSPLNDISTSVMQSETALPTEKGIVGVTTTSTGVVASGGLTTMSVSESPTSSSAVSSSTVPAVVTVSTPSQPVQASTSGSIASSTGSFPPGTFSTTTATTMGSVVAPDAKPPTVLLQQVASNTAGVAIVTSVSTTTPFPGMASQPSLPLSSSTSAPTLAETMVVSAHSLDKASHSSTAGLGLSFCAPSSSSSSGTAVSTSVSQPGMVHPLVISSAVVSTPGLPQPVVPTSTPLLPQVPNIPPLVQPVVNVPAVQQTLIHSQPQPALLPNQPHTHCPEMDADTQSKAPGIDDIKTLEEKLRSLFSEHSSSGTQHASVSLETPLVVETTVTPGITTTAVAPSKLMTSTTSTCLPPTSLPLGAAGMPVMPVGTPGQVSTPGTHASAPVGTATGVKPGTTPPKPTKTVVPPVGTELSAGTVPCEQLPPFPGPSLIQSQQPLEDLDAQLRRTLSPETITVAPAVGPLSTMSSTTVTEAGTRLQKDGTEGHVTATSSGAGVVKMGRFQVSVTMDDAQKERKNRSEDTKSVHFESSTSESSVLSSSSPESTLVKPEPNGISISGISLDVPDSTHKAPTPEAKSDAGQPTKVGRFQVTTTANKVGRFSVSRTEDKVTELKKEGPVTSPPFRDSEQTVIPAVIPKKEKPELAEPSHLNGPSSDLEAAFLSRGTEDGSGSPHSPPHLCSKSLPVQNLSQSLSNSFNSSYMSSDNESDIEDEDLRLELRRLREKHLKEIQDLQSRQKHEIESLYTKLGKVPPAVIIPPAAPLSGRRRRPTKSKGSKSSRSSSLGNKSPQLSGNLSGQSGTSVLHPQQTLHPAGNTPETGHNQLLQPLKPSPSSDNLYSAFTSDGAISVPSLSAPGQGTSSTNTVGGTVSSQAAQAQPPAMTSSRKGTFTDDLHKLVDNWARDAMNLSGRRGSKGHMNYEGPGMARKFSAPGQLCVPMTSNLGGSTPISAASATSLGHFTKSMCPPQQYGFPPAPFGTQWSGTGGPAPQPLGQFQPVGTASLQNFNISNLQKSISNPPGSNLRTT
UniProt Q05512: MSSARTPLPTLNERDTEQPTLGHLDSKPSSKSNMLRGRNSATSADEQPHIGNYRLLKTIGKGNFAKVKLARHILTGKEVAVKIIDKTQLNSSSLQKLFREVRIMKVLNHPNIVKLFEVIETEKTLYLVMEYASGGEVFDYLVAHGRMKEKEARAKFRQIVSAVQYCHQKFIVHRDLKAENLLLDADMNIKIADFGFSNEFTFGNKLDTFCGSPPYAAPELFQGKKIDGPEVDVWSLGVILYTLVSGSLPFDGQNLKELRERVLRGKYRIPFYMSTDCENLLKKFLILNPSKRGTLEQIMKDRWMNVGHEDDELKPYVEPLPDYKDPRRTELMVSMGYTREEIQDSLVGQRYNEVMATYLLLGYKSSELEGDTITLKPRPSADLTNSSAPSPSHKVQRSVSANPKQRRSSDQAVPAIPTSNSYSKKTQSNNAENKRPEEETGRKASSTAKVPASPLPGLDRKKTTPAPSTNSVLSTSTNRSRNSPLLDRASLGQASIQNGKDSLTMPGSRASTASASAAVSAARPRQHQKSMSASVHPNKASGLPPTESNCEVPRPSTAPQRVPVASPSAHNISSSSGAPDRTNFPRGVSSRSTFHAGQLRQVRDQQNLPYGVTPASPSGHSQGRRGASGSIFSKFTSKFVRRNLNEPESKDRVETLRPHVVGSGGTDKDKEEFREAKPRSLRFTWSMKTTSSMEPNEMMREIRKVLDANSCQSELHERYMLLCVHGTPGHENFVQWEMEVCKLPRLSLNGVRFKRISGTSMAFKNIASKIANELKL

binding	Molecule
binds	Protein PRRC2C (from UniProt Q3TLH4 1-2846)
binds	Map4 (from UniProt P27546 1-1125)
binds	Rrbp1 (from UniProt Q99PL5 1-1605)
binds	Hnrnpu (from UniProt Q8VEK3 1-800)
binds	E3 ubiquitin-protein ligase RING2 (from UniProt Q9CQJ4 1-336)
binds	NADH dehydrogenase [ubiquinone] iron-sulfur protein 4, mitochondrial (from UniProt Q9CXZ1 43-175)
binds	Protein PRRC2A (from UniProt Q7TSC1 1-2158)
binds	Tripeptidyl-peptidase 2 (from UniProt Q64514 1-1262)
binds	Map1b (from UniProt P14873 1-2464)
binds	Structural maintenance of chromosomes protein 4 (from UniProt Q8CG47 1-1286)
binds	DNA topoisomerase 2-beta (from UniProt Q64511 1-1612)
binds	DnaJ homolog subfamily A member 1 (from UniProt P63037 1-397)
binds	Centrosomal protein of 170 kDa protein B (from UniProt Q80U49 1-1574)
binds	NF-kappa-B-repressing factor (protein, UniProt Q8BY02 1-690) MEKILHMAEGIDIGEMPSYDLMLPKPSKGQKRYLSTYDGQNPPKKQAGSKFHVRARFEPVHFVASSSKAERQEDPYGPQTKDVNGRTHFASMPRNFYQDYTQDSFSIQDGNSQYCNSSGFIFTKDQPVATNMYFDSGNPAPSSTSQQANCQPAPEPPPSQMYPESLVAEKQYFIEKLTATIWKNLSNPEMTSGSDKINYTYMLTRCIQACKTNPEYIYAPLKEIPPADIPKNKKLLTDGYACEVRCQNIYLTTGYAGSKNGSRDRATELAVKLLQKRIEVRVVRRKFKHIIGEDLVVCQIGMLSYEFPPALKPPEDLVVLGKDASGQPIFNSSAKHWTNFVITENANDAIGILNNSASFNKMSIEYKYEMMPNRTWRCRVFLQDHCLAEGYGTKKTSKHAAADEALKVLQKTQPTYPSVKSSQCHSGSSPKGSGKKKDIKDLVVYENSSNPVCTLNDTAQFNRMTVEYVYERMTGLRWKCKVILESEVIAEAVGVKKSVKYEAAGEAVKTLKKTQPTVINNLKKGTVEDVISRNEIQGRSAEEAYKQQIKEDNIGNQLLRKMGWTGGGLGKSGEGIREPISVKEQHKREGLGLDVERVNKIAKRDIEQIIRNYARSESHSDLTFSTELTNDERKQIHQIAQKYGLKSKSHGVGHDRYLVVGRKRRKEDLLDQLKQEGQVGHYELVMPQAN

Continued, molecule first:

Molecule	binding
Hnrnpa3 (from UniProt Q8BG05 1-379)	binds
Eif3a (from UniProt P23116 1-1344)	binds
Dynactin subunit 2 (from UniProt Q99KJ8 1-402)	binds
Beta-hexosaminidase subunit beta (from UniProt P20060 32-536)	binds
Serine/threonine-protein kinase WNK1 (from UniProt P83741 1-2377)	binds
Serine/threonine-protein kinase MARK2 (from UniProt Q05512 1-776)	binds
Ago2 (from UniProt Q8CJG0 1-860)	binds
Prpf19 (from UniProt Q99KP6 1-504)	binds
Zc3h11a (from UniProt Q6NZF1 1-792)	binds
Death-inducer obliterator 1 (from UniProt Q8C9B9 1-2256)	binds
Eif4g3 (from UniProt Q80XI3 1-1579)	binds
Zinc finger RNA-binding protein (from UniProt O88532 1-1074)	binds
Xrn1 (from UniProt P97789 1-1719)	binds
DNA topoisomerase 2-alpha (from UniProt Q01320 1-1528)	binds
Vesicle-associated membrane protein-associated protein B (from UniProt Q9QY76 1-243)	binds
Serine palmitoyltransferase 2 (protein, UniProt P97363 1-560) MRPEPGGCCCRRPMRANGCVKNGEVRNGYLRSSTATVAAAGQIHHVTENGGLYKRPFNEAFEETPMLVAVLTYVGYGVLTLFGYLRDFLRHWRIEKCHHATEREEQKDFVSLYQDFENFYTRNLYMRIRDNWNRPICSVPGAKVDIMERKSHDYNWSFKYTGNIIKGVINMGSYNYLGFARNTGSCQEAAAEVLKEYGAGVCSTRQEIGNLDKHEELEKLVARFLGVEAAMTYGMGFATNSMNIPALVGKGCLILSDELNHASLVLGARLSGATIRIFKHNNMQSLEKLLKDAIVYGQPRTRRPWKKILILVEGIYSMEGSIVRLPEVIALKKKYKAYLYLDEAHSIGALGPSGRGVVDYFGLDPEDVDVMMGTFTKSFGASGGYIGGKKELIDYLRTHSHSAVYATSMSPPVMEQIITSMKCIMGQDGTSLGKECIQQLAENTRYFRRRLKEMGFIIYGNEDSPVVPLMLYMPAKIGAFGREMLKRNIGVVVVGFPATPIIESRARFCLSAAHTKEILDTALKEIDEVGDLLQLKYSRHRLVPLLDRPFDETTYEETED	binds
Mitochondrial fission 1 protein (protein, UniProt Q9CQ92 1-152) MEAVLNELVSVEDLKNFERKFQSEQAAGSVSKSTQFEYAWCLVRSKYNEDIRRGIVLLEELLPKGSKEEQRDYVFYLAVGNYRLKEYEKALKYVRGLLQTEPQNNQAKELERLIDKAMKKDGLVGMAIVGGMALGVAGLAGLIGLAVSKSKS	binds
Ribosomal RNA processing protein 1 homolog B (protein, UniProt Q91YK2 1-724) MALAMQSSEFQFAQRLASSEKGVRDRAVRKLRQYLSARTQSDTGSFSQEELLKIWKGLFYCMWVQDEPLLQEELANIISQLIHVVNSLEAQYLFIQTFWQTMNREWQGIDKLQLDKYYMLIRLVLRQSFEVLKRNAWEESQITLFLDILMKEILSPESQSPNGVRTHLIDVYLEELTTVGGAELLADQNLKLIDPFCRIAAKTKDHTLVQTVARGVFEVIVDQSACVPQESVEERKTKEDGSGFPTKALACRKAVSGKKAALDECLRDGVIGSRERDICAALKDSGSPLQFDYKAVADRLLEIANSKSTPPFNRKRLCRLVRKFQDLCEGNGAPLSSAEDNGQRRHKRKRKKLLESEKGDTVSPAAEEDSGGHIHKKKRKKRKRSHFQPDTQNLDAVAVPKVPDSESEPDTAQRQAPCGQACVTEPTAEAVSSIGENSSKPTPVMPIHNKRKRPRKKKLRAHKEICKSTTLPQEDMSKNDAVSGHSQSSAAHISSSEGVQAQKRKRKLGALPDSSSDLPVQKSGTPTSPVEGKDGQTTLPRCKRSQKKTASSTLDPCDPSSQKPAISKKKKKTMKLMSNGVLESNPGQIQALGSNRTLKKPLKTEDDFVKFDTRFLPKPLFFRKAKNSSATRPQGPAGQLNKTPSSSKKVTFGLNRNMTAEFKKTDKSILVSPTGLSRVAFNPEQRPLHGVLKTATSSPASTPLSPMRLPATTPKRRPRAADFF	binds
Sister chromatid cohesion protein PDS5 homolog B (protein, UniProt Q4VA53 1-1446) MAHSKTRTNDGKITYPPGVKEISDKISKEEMVRRLKMVVKTFMDMDQDSEEEKELYLNLALHLASDFFLKHPDKDVRLLVACCLADIFRIYAPEAPYTSPDKLKDIFMFITRQLKGLEDTKSPQFNRYFYLLENIAWVKSYNICFELEDSNEIFTQLYRTLFSVINNGHNQKVHMHMVDLMSSIICEGDTVSQELLDTVLVNLVPAHKNLNKQAYDLAKALLKRTAQAIEPYITNFFNQVLMLGKTSISDLSEHVFDLILELYNIDSHLLLSVLPQLEFKLKSNDNEERLQVVKLLAKMFGAKDSELASQNKPLWQCYLGRFNDIHVPIRLECVKFASHCLMNHPDLAKDLTEYLKVRSHDPEEAIRHDVIVSIVTAAKKDILLVNDHLLNFVRERTLDKRWRVRKEAMMGLAQIYKKYSLQSAAGKDAAKQISWVKDKLLHIYYQNSIDDRLLVERIFAQYMVPHNLETTERMKCLYYLYATLDLNAVKALNEMWKCQNLLRHQVKDLLDLIKQPKTDASVKAIFSKVMVITRNLPDPGKAQDFMKKFTQVLEDDEKIRKQLEALVSPTCSCKQAEGCVREITKKLGNPKQPTNPFLEMIKFLLERIAPVHIDTESISALIKQVNKSIDGTADDEDEGVPTDQAIRAGLELLKVLSFTHPISFHSAETFESLLACLKMDDEKVAEAALQIFKNTGSKIEEDFPHIRSALLPVLHHKSKKGPPRQAKYAIHCIHAIFSSKETQFAQIFEPLHKSLDPSNLEHLITPLVTIGHIALLAPDQFAAPLKSLVATFIVKDLLMNDRLPGKKTTKLWVPDEEVSPETMVKIQAIKMMVRWLLGMKNNHSKSGTSTLRLLTTILHSDGDLTEQGKISKPDMSRLRLAAGSAIVKLAQEPCYHEIITLEQYQLCALAINDECYQVRQVFAQKLHKGLSRLRLPLEYMAICALCAKDPVKERRAHARQCLVKNITVRREYLKQHAAVSEKLLSLLPEYVVPYTIHLLAHDPDYVKVQDIEQLKDVKECLWFVLEILMAKNENNSHAFIRKMVENIKQTKDAQGPDDTKMNEKLYTVCDVAMNIIMSKSTTYSLESPKDPVLPARFFTQPDKNFSNTKNYLPPEMKSFFTPGKPKTANVLGAVNKPLSSAGKQSQTKSSRMETVSNASSSSNPSSPGRIKGRLDSSEMDHSENEDYTMSSPLPGKKSDKREDPDLSELEKPRSRKKAPVTDPEEKLGMDDLTKLVQEQKPKGSQRGRKRGRTASDSDEQQWPEEKRHKEELLENEDEQNSPPKKGKRGRPPKPLGGGTSKEEPTMKTSKKGNKKKLVPPVVDDDEEEERQIGNTEHKSKSKQHRTSKRAQQRAESPETSAVESTQSTPQKGRGRPSKAPSPSQPPKKIRVGRSKQVATKENDSSEEMDVLQASSPVSDDTTQEGAEEEDISVGNVRRRSSKRERR	binds
